Results are given in words; binding and its absence hold for the method and conditions named. For some of these results: Binding seen in cells or lysates may run through a third protein. Some binding calls cover weakened binding; strength is not graded here.
Experiments:
[1] = molecular target: purified PP1α released from the GST-PP1α fusion protein by thrombin (human) (UniProt P62136); experiment: GST pulldown of purified PP1α, immunoblot with anti-PP1α antibody
[2] = molecular target: purified PP1α released from the GST-PP1α fusion protein by thrombin (human) (UniProt P62136); experiment: GST pulldown in vitro
[3] = molecular target: protein encoded by the cDNA isolated from the human brain cDNA library in the yeast two-hybrid screen: catalytic subunit of protein phosphatase 1α (PP1α) (human) (UniProt P62136); experiment: yeast two-hybrid
[4] = molecular target: protein encoded by the cDNA isolated from the human brain cDNA library in the yeast two-hybrid screen: catalytic subunit of protein phosphatase 1α (PP1α) (human) (UniProt P62136); experiment: yeast two-hybrid, β-galactosidase filter assay

Row | binding [3] | binding [4] | Substance | binding [1] | binding [2]
1 |  |  | GST fused to the carboxyl terminus of MyD116 (pRB4873) (from UniProt P17564 485-657) | binds | binds
2 | binds | binds | carboxyl terminus of MyD116 (codons 524 to 657) in pGBT9 (pRB4890), the bait of the yeast two-hybrid system (from UniProt P17564 524-657) |  | 

— patent EP1019524B1
